Test results as given in PMC12109561, “LPS2336, a New TREK-1 Channel Activator Identified by High Throughput Screening” (Biomolecules, 2025).

Protein sequences, listed by entry. Tags and fused reporters are not part of them. Lines headed by an entry give the natural chain unless they say otherwise; changes in a name come on top.
UniProt O95069: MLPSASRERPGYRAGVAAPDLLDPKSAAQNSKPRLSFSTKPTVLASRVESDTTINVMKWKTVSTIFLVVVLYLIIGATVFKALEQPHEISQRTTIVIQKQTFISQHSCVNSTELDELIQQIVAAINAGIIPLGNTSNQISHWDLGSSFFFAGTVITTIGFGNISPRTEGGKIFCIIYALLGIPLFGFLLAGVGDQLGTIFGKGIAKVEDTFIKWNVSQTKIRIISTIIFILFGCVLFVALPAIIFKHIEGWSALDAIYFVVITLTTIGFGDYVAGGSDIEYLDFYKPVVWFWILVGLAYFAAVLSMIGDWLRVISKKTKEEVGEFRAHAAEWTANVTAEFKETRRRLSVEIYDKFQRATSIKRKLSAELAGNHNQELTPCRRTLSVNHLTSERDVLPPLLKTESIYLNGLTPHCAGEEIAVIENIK

Target: T1, hTREK-1 (Homo sapiens, UniProt O95069)
T1 sequence (O95069 1-422 isoform O95069-3): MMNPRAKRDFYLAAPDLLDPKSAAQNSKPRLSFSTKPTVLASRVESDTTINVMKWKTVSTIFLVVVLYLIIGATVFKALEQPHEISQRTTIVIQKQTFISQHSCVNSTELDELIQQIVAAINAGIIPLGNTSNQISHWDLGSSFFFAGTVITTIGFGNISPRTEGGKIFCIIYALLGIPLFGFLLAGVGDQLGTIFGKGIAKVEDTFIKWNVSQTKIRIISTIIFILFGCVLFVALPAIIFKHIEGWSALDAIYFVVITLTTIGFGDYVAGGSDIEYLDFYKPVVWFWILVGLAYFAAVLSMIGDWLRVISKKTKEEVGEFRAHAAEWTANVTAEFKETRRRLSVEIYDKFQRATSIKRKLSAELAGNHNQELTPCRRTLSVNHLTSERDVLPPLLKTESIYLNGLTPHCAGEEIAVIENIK
Experiment: Whole cell patch clamp on HEK-hTREK-1 cells
Format: cell-based
Parameters: transfected with the human Kcnk2 (NM_001017424) or Kcnk10 (NM_021161) ORF cloned in a pEZ-M02 expression vector

Structure (SMILES): Nc1nc2ccc(OC(F)(F)F)cc2s1 [Riluzole, riluzole]
- increase of mean current density recorded at 0 mV: 2.23 fold
